In this test the target is T1, His-tagged Tim50 D337V (yeast) (UniProt Q02776).
T1 sequence: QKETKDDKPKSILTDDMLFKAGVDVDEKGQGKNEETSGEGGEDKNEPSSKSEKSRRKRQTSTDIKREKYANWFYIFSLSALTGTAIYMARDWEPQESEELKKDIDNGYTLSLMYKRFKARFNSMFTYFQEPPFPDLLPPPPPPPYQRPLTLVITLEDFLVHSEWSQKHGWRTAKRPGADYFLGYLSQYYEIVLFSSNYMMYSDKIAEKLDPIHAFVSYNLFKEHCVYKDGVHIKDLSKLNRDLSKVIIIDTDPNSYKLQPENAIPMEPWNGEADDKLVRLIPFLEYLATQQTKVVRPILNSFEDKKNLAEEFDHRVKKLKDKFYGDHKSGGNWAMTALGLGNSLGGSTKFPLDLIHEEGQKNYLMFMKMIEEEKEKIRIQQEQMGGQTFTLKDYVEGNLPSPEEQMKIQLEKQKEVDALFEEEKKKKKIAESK
Description: pull-down; mitochondria from cells expressing His-tagged Tim50 versions solubilized with 1% digitonin, incubated with Ni-NTA agarose beads at 4 °C, eluted with Laemmli buffer with 300 mM imidazole; immunoblot with Tim50, Tim17 and Tim23 antibodies.

No constants are given. Whether binding was seen depends on the method and setting. Binding seen in cells or lysates may run through a third protein. Some entries that bind do so weakly or less than the wild type. Sequences can lack the tags named with a protein.

B1: Tim23 (protein, UniProt P32897 1-222)
chain: MSWLFGDKTPTDDANAAVGGQDTTKPKELSLKQSLGFEPNINNIISGPGGMHVDTARLHPLAGLDKGVEYLDLEEEQLSSLEGSQGLIPSRGWTDDLCYGTGAVYLLGLGIGGFSGMMQGLQNIPPNSPGKLQLNTVLNHITKRGPFLGNNAGILALSYNIINSTIDALRGKHDTAGSIGAGALTGALFKSSKGLKPMGYSSAMVAAACAVWCSVKKRLLEK
For the molecule B1, the binding result is reported as “binds”.

Values taken from PMC6375917 (2019).
